# Laboratory results published in PubChem BioAssay AID504834 (National Center for Advancing Translational Sciences (NCATS), 2011).
# Among all 320,000 compounds or so, about 22,000 (6.9%) were called active. The shares of active, inactive and inconclusive entries below differ from those in the screen. Calls come from the whole dose curve; as a rule, active = well fitted inhibition curve with a large enough effect; inconclusive = small, poorly fitted or top-dose-only effect, or another doubt; inactive = no such curve, though single readings can be large or run the other way. Where the call is inconclusive, the potency comes from a doubtful curve fit.
# Assay: Primary qHTS for delayed death inhibitors of the malarial parasite plastid, 96 hour incubation
# Settings: P. falciparum luciferase reporter growth; series mostly up to 28.7 µM
# In short: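 Erythrocytes infected with luciferase-expressing P. falciparum were dispensed at 2% hematocrit and 0.05% parasitemia (final), then incubated with compounds 96 hours at 37 C in 5% CO2. Luminescence after detection reagent addition reported growth.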
# Potency is the fitted concentration of half-maximal effect.
row,Structure (SMILES),Potency
1,COCCCNC(=O)CCc1c(C)c2cc3c(C)coc3cc2oc1=O,"inconclusive: 7.38 µM [inhibitor, partial curve, poor fit]"
2,CCC(=O)N(CCC(c1ccc(C)cc1)c1ccco1)Cc1ccco1 (configuration not stated),"inconclusive: 10.4 µM [inhibitor, partial curve, poor fit]"
3,O=c1c2c([nH]c3ccccc13)CCCC2,active: 1.85 µM
4,CC[C@H]1OC(=O)[C@H](C)[C@@H](O[C@H]2C[C@@](C)(OC)[C@@H](O)[C@H](C)O2)C(C)[C@@H](O[C@@H]2O[C@H](C)C[C@H](N(C)C)[C@@H]2O)[C@](C)(OC)C[C@@H](C)C(=O)[C@H](C)[C@@H](O)[C@]1(C)O (some centres not stated),active: 1.35 µM
5,COCCCN1C(=O)C(=O)/C(=C(/O)c2ccc(OCC(C)C)cc2)C1c1cccnc1 (configuration not stated),"inconclusive: 0.928 µM [inhibitor, partial curve, poor fit]"
6,CCCn1c(SCC(=O)c2ccc3c(c2)OCCO3)n[nH]c1=O,"inconclusive: 18.5 µM [inhibitor, partial curve, poor fit]"
7,COc1ccc(Cn2c(O)c(C=Nc3ccc(OC)cc3)c3ccccc3c2=O)cc1,inactive
8,CC(=O)c1ccc(NC(=S)Nc2cccc3cnccc23)cc1,active: 2.62 µM
9,COc1ccc(C(=O)O)cc1S(=O)(=O)Nc1ccccc1Cc1ccccc1,inactive
10,CC(C)N(CC(O)COc1ccc(CC(N)=O)cc1)CC(O)COc1ccc(CC(N)=O)cc1 (configuration not stated),"inconclusive: 13.1 µM [inhibitor, single point]"
11,C=CCn1c(SCC(=O)Nc2ccc(-c3nc4ccc(C)cc4s3)cc2)nnc1-c1ccccc1,inactive
12,O=S(=O)(NCCC(c1ccc(F)cc1)c1ccco1)c1ccccc1 (configuration not stated),inactive
13,CCN(CC)S(=O)(=O)c1ccc(NC(=O)CSc2nnc(-c3ccc(F)cc3)o2)cc1,"inconclusive: 0.233 µM [inhibitor, partial curve, poor fit]"
14,COCCN(C(=O)c1ccco1)c1nnc(-c2ccc(OC)cc2)s1,"inconclusive: 5.86 µM [inhibitor, partial curve, poor fit]"
15,NC(=O)c1nsc(C(=O)N(CC(=O)NCc2ccccc2)c2ccc(F)cc2)c1N,"inconclusive: 9.28 µM [inhibitor, partial curve, poor fit]"
16,Cc1ccc(CN(C(=O)c2ccc(Cl)c([N+](=O)[O-])c2)C2CCS(=O)(=O)C2)o1 (configuration not stated),inactive
17,Cc1cc(OCC(=O)Nc2ccc(N3CCN(C(=O)c4ccco4)CC3)cc2)cc(C)c1Cl,"inconclusive: 10.4 µM [inhibitor, single point]"
18,CNC(=O)CC1C(=O)N(c2ccc(Cl)cc2)C(=S)N1NC(=O)c1cccc(F)c1 (configuration not stated),"inconclusive: 2.94 µM [inhibitor, full curve]"
19,CCOC(=O)N1CCN(C2=CC(=O)OC23CCCCC3)CC1,"inconclusive: 11.7 µM [inhibitor, single point]"
20,Oc1ccccc1CNCCCN1CCOCC1,"inconclusive: 18.5 µM [inhibitor, single point]"
21,COc1ccc(C(=O)CN2CCN(c3cc(C)nc4ccccc34)CC2)cc1,"inconclusive: 9.28 µM [inhibitor, partial curve, poor fit]"
22,COc1ccc(Br)cc1/C=C/C(=O)Nc1c(C)cccc1C,inactive
23,COc1cc2c(cc1NC(=O)C(C)Sc1ccc(NC(C)=O)cc1)oc1ccccc12 (configuration not stated),"inconclusive: 18.5 µM [inhibitor, single point]"

row,Structure (SMILES),Potency
1,Nc1nc(OCC2CCCCC2)c2[nH]cnc2n1,"inconclusive: 13.1 µM [inhibitor, single point]"
2,Cc1ccc(C)c(S(=O)(=O)NCC(=O)Nc2ccc3c(c2)OCO3)c1,inactive
3,COc1ccc(-c2c(C#N)c(SCC(=O)c3cc4ccccc4oc3=O)nc(C)c2C(=O)Nc2ccccc2)cc1,active: 11.7 µM
4,O=C(Nc1cc([N+](=O)[O-])ccc1C(=O)Nc1cccnc1)c1ccccc1,"inconclusive: 18.5 µM [inhibitor, single point]"
5,CCOc1ccc(-c2nc(N)ncc2-c2ccc(Cl)cc2)c(O)c1,"inconclusive: 5.22 µM [inhibitor, partial curve]"
6,COc1ccc(CCN(C)C(=O)COC(=O)/C=C/c2ccc(C)o2)cc1OC,"inconclusive: 3.29 µM [inhibitor, partial curve, poor fit]"
7,CCOc1ccc(S(=O)(=O)Nc2ccccc2SC)c2cccnc12,"inconclusive: 4.65 µM [inhibitor, partial curve, poor fit]"
8,CCn1c(SCC(=O)N2CCCC2)nc2ccccc21,inactive
9,CCc1nnc(NC(=O)CSc2ccc(-c3ccccc3OC)nn2)s1,inactive
10,CC(C)CC(=O)Nc1cccc2c1C(=O)N(c1ccccc1)C2=O,inactive
11,COc1ccc(/C=N/NC(=O)CCCOc2ccc(Cl)cc2Cl)cc1,"inconclusive: 13.1 µM [inhibitor, single point]"
12,Cc1cccc(-c2nnc(NC(=O)c3ccc(N4C(=O)CCC4=O)cc3)s2)c1,active: 4.65 µM
13,COCCSc1nnc(NC(=O)c2ccco2)s1,"inconclusive: 10.4 µM [inhibitor, single point]"
14,O=C(Cc1ccccc1)Nc1ccccc1Oc1ccccc1,inactive
15,COc1ccc2cc(-c3nc4ccccc4n3C)c(=O)oc2c1,"inconclusive: 10.4 µM [inhibitor, partial curve, poor fit]"
16,CNC(=O)CN(c1cc(OCCOC)c(Cl)cc1Cl)S(=O)(=O)c1ccccc1,"inconclusive: 20.8 µM [inhibitor, partial curve, poor fit]"
17,N#Cc1c(-c2ccc(F)cc2)ccnc1N1CCOCC1,"inconclusive: 11.7 µM [inhibitor, single point]"
18,Cc1nnc(SCc2ccccc2)nc1/C=C/NOCc1ccc(Cl)cc1Cl,"inconclusive: 11.7 µM [inhibitor, single point]"
19,ClC1(Cl)CC1CSc1nnc(-c2ccncc2)o1 (configuration not stated),"inconclusive: 4.65 µM [inhibitor, partial curve, poor fit]"
20,CCC(C)(C)n1nnnc1C(C(C)C)N(CCCO)Cc1cc2cc(C)ccc2[nH]c1=O (configuration not stated),active: 13.1 µM
21,CCC(c1nnnn1C1CCCC1)N1CCN(Cc2ccccc2)CC1 (configuration not stated),"inconclusive: 1.47 µM [inhibitor, full curve]"
22,O=C(/C=C/c1ccco1)NC(=S)Nc1ccc(C(=O)O)cc1,inactive
23,CCOC(=O)N1CCC(NC(=O)C(CC(C)C)NC(=O)C2CCC(C)CC2)CC1 (configuration not stated),"inconclusive: 18.5 µM [inhibitor, single point]"

# Taken from above.
# For Potency, CNC(=O)CC1C(=O)N(c2ccc(Cl)cc2)C(=S)N1NC(=O)c1cccc(F)c1 (configuration not stated) has the entry inconclusive: 2.94 µM [inhibitor, full curve]
# For Potency, NC(=O)c1nsc(C(=O)N(CC(=O)NCc2ccccc2)c2ccc(F)cc2)c1N has the entry inconclusive: 9.28 µM [inhibitor, partial curve, poor fit]
# For Potency, CCCn1c(SCC(=O)c2ccc3c(c2)OCCO3)n[nH]c1=O has the entry inconclusive: 18.5 µM [inhibitor, partial curve, poor fit]
# For Potency, COc1ccc(-c2c(C#N)c(SCC(=O)c3cc4ccccc4oc3=O)nc(C)c2C(=O)Nc2ccccc2)cc1 has the entry active: 11.7 µM

# More results.

row,Structure (SMILES),Potency
1,COc1ccc(OC)c(Nc2cc(C)c3ccccc3n2)c1,"inconclusive: 0.928 µM [inhibitor, full curve, poor fit]"
2,O=C(NC1CCCCCCC1)c1ccc2c(c1)N(Cc1ccc(F)cc1)C(=O)CS2=O (configuration not stated),"inconclusive: 0.233 µM [inhibitor, full curve, poor fit]"
3,CCOC(=O)C(CC)Sc1ccc2nnc(-c3cccnc3)n2n1 (configuration not stated),"inconclusive: 3.29 µM [inhibitor, full curve, poor fit]"
4,CC(=O)Oc1ccc(C23CC4CC(CC(C4)C2)C3)cc1C(=O)O,inactive
5,CCOC(=O)/C(=N\Nc1ccc(Cl)cc1)Sc1nnc(-c2ccc(OC)cc2)n1C,"inconclusive: 3.29 µM [inhibitor, single point]"
6,O=C(NCCCn1ccnc1)c1ccc(N2CCCCC2)c([N+](=O)[O-])c1,"inconclusive: 14.7 µM [inhibitor, partial curve, poor fit]"
7,CC(C)c1nnc(NC(=O)c2c(O)c3cccc4c3n(c2=O)CCC4)s1,"inconclusive: 4.15 µM [inhibitor, single point]"
8,O=c1c2ccsc2ncn1Cc1cccc(C(F)(F)F)c1,"inconclusive: 20.8 µM [inhibitor, single point]"
9,Cc1csc(SCc2c(C(=O)O)oc3ccccc23)n1,"inconclusive: 14.7 µM [inhibitor, single point]"
10,O=S(=O)(c1ccccc1)[C@@]1(c2ccccc2)C[C@@H]2ON=C(c3cccc(Br)c3)[C@@H]2C1,"inconclusive: 1.65 µM [inhibitor, full curve]"
11,Cc1ccc(CNc2ccc3c(c2)ncn3C(C)C)cc1,"inconclusive: 16.5 µM [inhibitor, single point]"
12,CN(CC(=O)Nc1c(Cl)cccc1Cl)C(=O)CC1OC(=O)c2ccccc21 (configuration not stated),"inconclusive: 0.522 µM [inhibitor, full curve, poor fit]"
13,CC(C)(C)C(=O)Nc1sc2c(c1C(=O)Nc1ccccn1)CCCC2,"inconclusive: 3.29 µM [inhibitor, full curve]"
14,CS(=O)(=O)c1cccc(C(=O)Nc2cccc(S(=O)(=O)N3CCCC3)c2)c1,"inconclusive: 18.5 µM [inhibitor, partial curve, poor fit]"
15,Fc1ccccc1C1CCN(Cc2nc(CC3CC3)no2)C1 (configuration not stated),"inconclusive: 5.86 µM [inhibitor, partial curve]"
16,COc1cc(C(=O)NC(C)c2ccc(-n3ccnc3)cc2)cc(OC)c1C (configuration not stated),"inconclusive: 10.4 µM [inhibitor, single point]"
17,CC(C)c1nc2ccccn2c1NC1CCCCC1,inactive
18,CCn1c(-c2cccnc2Cl)nc2cc(Cl)c(Cl)cc21,inactive
19,O=C(O)c1ccc(-c2nnn(Cc3cccc(C(F)(F)F)c3)n2)cc1,inactive
20,CC1(C)C=C(c2ccc(C(=O)O)s2)CC(C)(C)N1,inactive
21,O=C(CSc1nnnn1-c1ccc(C(=O)O)cc1)NC1CCCCC1,"inconclusive: 16.5 µM [inhibitor, partial curve, poor fit]"
